# Patent US10947275B2 (Ben-Gurion University of the Negev Research and Development …, priority 2010, dated 2021)
# Test: general procedure: Fmoc solid-phase peptide synthesis; MBHA Resin; HBTU, DIPEA
# Settings: whole synthesis, analytical HPLC (Dionex), NMR, LCMS
substance,measurement,value
Ac-KRRMK^NvocWK^NvocK^Nvoc,final HPLC purity,>90%
